According to doi:10.1101/2022.09.08.506998:
No constants are given. Whether binding was seen depends on the method and setting. Some entries that bind do so weakly or less than the wild type.

Amino acid sequences for entries named in this document (tags omitted). Residues count along the entry.
UniProt P21583, residues 26-166: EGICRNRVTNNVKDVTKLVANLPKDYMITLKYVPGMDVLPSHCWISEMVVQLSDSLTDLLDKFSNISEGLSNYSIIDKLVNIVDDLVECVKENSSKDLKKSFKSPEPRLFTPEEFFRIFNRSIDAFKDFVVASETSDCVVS

Target: stem cell factor (SCF) (UniProt P21583)
Assay: cryo-EM structure

stem cell factor (SCF) (from UniProt P21583 26-166) (ligand)
binding: binds
